Data reported in PMC6999089.
These are yes or no findings as the source states them, for the method shown. In cells and extracts the contact can be indirect. Binding can be weak; no strength is given.

Protein sequences, listed by entry. Tags and fused reporters are not part of them. Lines headed by an entry give the natural chain unless they say otherwise; changes in a name come on top.
UniProt Q7JQ32: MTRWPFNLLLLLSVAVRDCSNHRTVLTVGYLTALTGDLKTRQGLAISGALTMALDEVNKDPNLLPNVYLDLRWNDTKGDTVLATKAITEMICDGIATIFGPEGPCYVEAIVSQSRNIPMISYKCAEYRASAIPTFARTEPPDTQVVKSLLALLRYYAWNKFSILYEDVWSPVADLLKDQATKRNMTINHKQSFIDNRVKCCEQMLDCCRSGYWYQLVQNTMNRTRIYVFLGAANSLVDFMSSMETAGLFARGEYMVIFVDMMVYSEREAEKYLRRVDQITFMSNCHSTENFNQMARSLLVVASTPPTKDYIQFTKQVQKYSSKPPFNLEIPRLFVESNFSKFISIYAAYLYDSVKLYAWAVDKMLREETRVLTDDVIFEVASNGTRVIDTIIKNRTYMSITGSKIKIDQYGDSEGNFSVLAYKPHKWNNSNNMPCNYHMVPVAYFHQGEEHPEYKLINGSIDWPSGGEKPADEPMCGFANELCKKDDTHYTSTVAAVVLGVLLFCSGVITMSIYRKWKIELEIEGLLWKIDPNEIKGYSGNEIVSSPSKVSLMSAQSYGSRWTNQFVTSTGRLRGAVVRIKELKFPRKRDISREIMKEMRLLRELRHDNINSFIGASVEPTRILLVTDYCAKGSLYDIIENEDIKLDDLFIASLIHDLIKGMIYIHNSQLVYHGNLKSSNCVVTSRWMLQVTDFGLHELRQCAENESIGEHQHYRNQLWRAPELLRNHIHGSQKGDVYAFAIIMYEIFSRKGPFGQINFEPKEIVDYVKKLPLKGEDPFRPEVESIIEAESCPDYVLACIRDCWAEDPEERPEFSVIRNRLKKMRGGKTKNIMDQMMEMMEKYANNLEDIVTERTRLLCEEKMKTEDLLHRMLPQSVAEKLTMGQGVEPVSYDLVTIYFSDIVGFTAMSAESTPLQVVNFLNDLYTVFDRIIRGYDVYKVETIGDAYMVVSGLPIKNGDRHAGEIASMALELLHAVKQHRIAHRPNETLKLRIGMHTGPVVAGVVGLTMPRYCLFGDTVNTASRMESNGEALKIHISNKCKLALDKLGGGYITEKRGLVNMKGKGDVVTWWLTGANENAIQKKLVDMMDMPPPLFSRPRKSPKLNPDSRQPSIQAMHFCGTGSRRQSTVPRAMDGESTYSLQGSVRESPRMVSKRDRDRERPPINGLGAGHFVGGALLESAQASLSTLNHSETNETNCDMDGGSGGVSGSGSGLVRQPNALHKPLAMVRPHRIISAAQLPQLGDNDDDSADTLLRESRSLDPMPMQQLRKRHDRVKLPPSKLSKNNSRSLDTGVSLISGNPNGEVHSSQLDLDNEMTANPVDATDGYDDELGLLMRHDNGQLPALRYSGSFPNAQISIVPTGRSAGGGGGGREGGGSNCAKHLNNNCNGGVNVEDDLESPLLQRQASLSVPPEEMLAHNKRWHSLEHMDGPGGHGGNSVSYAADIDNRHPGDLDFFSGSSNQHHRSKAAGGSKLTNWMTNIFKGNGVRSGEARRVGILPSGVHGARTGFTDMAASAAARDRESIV
UniProt P08646: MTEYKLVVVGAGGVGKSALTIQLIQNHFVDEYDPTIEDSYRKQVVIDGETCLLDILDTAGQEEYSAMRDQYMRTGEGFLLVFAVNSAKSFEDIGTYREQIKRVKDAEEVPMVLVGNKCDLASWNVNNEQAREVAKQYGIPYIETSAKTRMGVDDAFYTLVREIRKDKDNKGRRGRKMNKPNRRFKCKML

Biological target: FLAG-tagged Gyc76C mutant lacking the kinase homology domain (Drosophila) (UniProt Q7JQ32)
Experiment: co-IP; S2 cells co-transfected with V5-Ras85D and FLAG-Gyc76C (WT or ΔKHD); lysis in 30 mM Tris pH 7.5, 150 mM NaCl, 1% CHAPS; IP with anti-FLAG M2 and Dynabeads M280 at 4°C; wash with 500 mM NaCl, 1% CHAPS; blot with anti-V5 and anti-FLAG

binding: binds
Substance: V5-tagged Ras85D (from UniProt P08646 1-189)
